PubChem BioAssay AID1159584, Peter MacCallum Cancer Centre, 2016

- Purpose: 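Knock-downs that harm CDH1-null cells more than parental MCF10A cells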 (primary screen)
- Cells: human MCF10A breast epithelial cells, parental and CDH1-null
- Reagents: siRNA against human genes
- Read-out: 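ATP luminescence (CellTiter-Glo) viability per line relative to mean mock wells over all plates, and the ratio of CDH1-null to parental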
- Scale: CDH1-null / parental viability ratio: higher = CDH1-null cells survive relatively better than parental
In all, the deposit lists about 18,000 reagents; this is a random part of them. Not all columns of the deposit are shown. The record does not give: the amount of reagent, the time to read-out.

| gene | CDH1-null / parental viability ratio |
| --- | --- |
| PFKM (GeneID 5213) | 0.8 |
| ABCF3 (GeneID 55324) | 0.97 |
| KLF7 (GeneID 8609) | 0.9 |
| TACO1 (GeneID 51204) | 1.12 |
| EEF1AKMT2 (GeneID 399818) | 0.82 |
| IDE (GeneID 3416) | 1.1 |
| AMOTL2 (GeneID 51421) | 0.8 |
| RSRP1 (GeneID 57035) | 1.1 |
| CGB5 (GeneID 93659) | 0.94 |
| PLAT (GeneID 5327) | 1.36 |
| MGLL (GeneID 11343) | 1.16 |
| NCAN (GeneID 1463) | 1.18 |
| CDC42EP5 (GeneID 148170) | 1.15 |
| CXCR5 (GeneID 643) | 1.35 |
| ATRX (GeneID 546) | 1.03 |
| TRMT44 (GeneID 152992) | 1.03 |
| C1orf198 (GeneID 84886) | 1.24 |
| VTI1A (GeneID 143187) | 1.31 |
| RNASEK (GeneID 440400) | 0.8 |
| DNTT (GeneID 1791) | 0.95 |
| EDDM3A (GeneID 10876) | 1.08 |
| SELENOS (GeneID 55829) | 0.92 |
| UCHL5 (GeneID 51377) | 1.1 |
| ZNF382 (GeneID 84911) | 1 |
| ALDH1L1 (GeneID 10840) | 1.78 |
| TPD52L2 (GeneID 7165) | 1.12 |
| INPP5D (GeneID 3635) | 1.19 |
| CLK3 (GeneID 1198) | 0.94 |
| RTL8B (GeneID 441518) | 1.3 |
| DPY19L2 (GeneID 283417) | 0.83 |
| TMEM108 (GeneID 66000) | 0.79 |
| PTPN4 (GeneID 5775) | 1.35 |
| CCDC162P (GeneID 221262) | 1.06 |
| CAMKK2 (GeneID 10645) | 1.05 |
| CALM1 (GeneID 801) | 0.83 |
| YWHAE (GeneID 7531) | 0.94 |

Part of the list above, reformatted:
{"gene":"ZNF382 (GeneID 84911)","CDH1-null / parental viability ratio":1}
{"gene":"ALDH1L1 (GeneID 10840)","CDH1-null / parental viability ratio":1.78}
{"gene":"TPD52L2 (GeneID 7165)","CDH1-null / parental viability ratio":1.12}
{"gene":"INPP5D (GeneID 3635)","CDH1-null / parental viability ratio":1.19}
{"gene":"CLK3 (GeneID 1198)","CDH1-null / parental viability ratio":0.94}
{"gene":"RTL8B (GeneID 441518)","CDH1-null / parental viability ratio":1.3}
{"gene":"DPY19L2 (GeneID 283417)","CDH1-null / parental viability ratio":0.83}
{"gene":"TMEM108 (GeneID 66000)","CDH1-null / parental viability ratio":0.79}
{"gene":"PTPN4 (GeneID 5775)","CDH1-null / parental viability ratio":1.35}
{"gene":"CCDC162P (GeneID 221262)","CDH1-null / parental viability ratio":1.06}
{"gene":"CAMKK2 (GeneID 10645)","CDH1-null / parental viability ratio":1.05}

The listing continues:
| gene | CDH1-null / parental viability ratio |
| --- | --- |
| MRPL13 (GeneID 28998) | 0.82 |
| PSD4 (GeneID 23550) | 0.82 |
| SURF6 (GeneID 6838) | 1.11 |
| LOXL4 (GeneID 84171) | 0.92 |
| TAAR8 (GeneID 83551) | 1.21 |
| OR9Q2 (GeneID 219957) | 0.61 |
| CYP2A7 (GeneID 1549) | 1.04 |
| NUTM1 (GeneID 256646) | 1.18 |
| AQP10 (GeneID 89872) | 1.04 |
| ALKBH8 (GeneID 91801) | 1.03 |
| NIPAL2 (GeneID 79815) | 0.81 |
| EXOC6 (GeneID 54536) | 1.17 |
| DACT1 (GeneID 51339) | 1.21 |
| EDAR (GeneID 10913) | 0.74 |
| MARS2 (GeneID 92935) | 1.24 |
| CAPG (GeneID 822) | 0.91 |
| STK4 (GeneID 6789) | 1.08 |
| KIT (GeneID 3815) | 0.96 |
| GOPC (GeneID 57120) | 1.05 |
| RNGTT (GeneID 8732) | 1.1 |
| BOD1 (GeneID 91272) | 0.8 |
| TMEM9B (GeneID 56674) | 0.95 |
| ZKSCAN4 (GeneID 387032) | 1.02 |
| THEMIS (GeneID 387357) | 1.06 |
| ZNF608 (GeneID 57507) | 1.37 |
| TAB3 (GeneID 257397) | 0.97 |
| RUFY2 (GeneID 55680) | 1.14 |
| CTSS (GeneID 1520) | 1.21 |
| FRMD7 (GeneID 90167) | 1.16 |
| GH1 (GeneID 2688) | 1.4 |
| MLLT1 (GeneID 4298) | 0.92 |
| NBL1 (GeneID 4681) | 0.87 |
| SLC33A1 (GeneID 9197) | 0.98 |
| GTSF1 (GeneID 121355) | 0.92 |
| SRP68 (GeneID 6730) | 0.85 |
| SUN5 (GeneID 140732) | 0.71 |
| CDH19 (GeneID 28513) | 1.07 |
| NCR3 (GeneID 259197) | 0.88 |
| PADI1 (GeneID 29943) | 0.98 |
| ZNF205 (GeneID 7755) | 0.89 |
| SRSF5 (GeneID 6430) | 0.97 |
| TCHHL1 (GeneID 126637) | 1.04 |
| ZNF703 (GeneID 80139) | 1.04 |
| NF2 (GeneID 4771) | 0.97 |
| GLCCI1 (GeneID 113263) | 1.03 |
| MAL (GeneID 4118) | 0.78 |
| NPAS2 (GeneID 4862) | 1.15 |
| GLI4 (GeneID 2738) | 1.75 |
| BFSP2 (GeneID 8419) | 1.17 |
| CD300E (GeneID 342510) | 0.71 |
| TMEM139 (GeneID 135932) | 1.04 |
